Data reported in article doi:10.1101/2024.07.03.601885.

The chains behind the UniProt entries cited, without tags or fusion partners.
UniProt Q61937: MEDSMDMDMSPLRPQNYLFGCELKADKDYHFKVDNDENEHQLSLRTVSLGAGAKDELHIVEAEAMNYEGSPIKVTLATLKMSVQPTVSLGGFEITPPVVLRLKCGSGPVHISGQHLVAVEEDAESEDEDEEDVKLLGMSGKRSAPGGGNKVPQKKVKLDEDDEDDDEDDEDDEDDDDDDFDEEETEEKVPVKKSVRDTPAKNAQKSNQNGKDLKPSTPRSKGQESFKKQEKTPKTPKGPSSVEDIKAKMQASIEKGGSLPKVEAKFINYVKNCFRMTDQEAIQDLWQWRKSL
UniProt E9PVX6: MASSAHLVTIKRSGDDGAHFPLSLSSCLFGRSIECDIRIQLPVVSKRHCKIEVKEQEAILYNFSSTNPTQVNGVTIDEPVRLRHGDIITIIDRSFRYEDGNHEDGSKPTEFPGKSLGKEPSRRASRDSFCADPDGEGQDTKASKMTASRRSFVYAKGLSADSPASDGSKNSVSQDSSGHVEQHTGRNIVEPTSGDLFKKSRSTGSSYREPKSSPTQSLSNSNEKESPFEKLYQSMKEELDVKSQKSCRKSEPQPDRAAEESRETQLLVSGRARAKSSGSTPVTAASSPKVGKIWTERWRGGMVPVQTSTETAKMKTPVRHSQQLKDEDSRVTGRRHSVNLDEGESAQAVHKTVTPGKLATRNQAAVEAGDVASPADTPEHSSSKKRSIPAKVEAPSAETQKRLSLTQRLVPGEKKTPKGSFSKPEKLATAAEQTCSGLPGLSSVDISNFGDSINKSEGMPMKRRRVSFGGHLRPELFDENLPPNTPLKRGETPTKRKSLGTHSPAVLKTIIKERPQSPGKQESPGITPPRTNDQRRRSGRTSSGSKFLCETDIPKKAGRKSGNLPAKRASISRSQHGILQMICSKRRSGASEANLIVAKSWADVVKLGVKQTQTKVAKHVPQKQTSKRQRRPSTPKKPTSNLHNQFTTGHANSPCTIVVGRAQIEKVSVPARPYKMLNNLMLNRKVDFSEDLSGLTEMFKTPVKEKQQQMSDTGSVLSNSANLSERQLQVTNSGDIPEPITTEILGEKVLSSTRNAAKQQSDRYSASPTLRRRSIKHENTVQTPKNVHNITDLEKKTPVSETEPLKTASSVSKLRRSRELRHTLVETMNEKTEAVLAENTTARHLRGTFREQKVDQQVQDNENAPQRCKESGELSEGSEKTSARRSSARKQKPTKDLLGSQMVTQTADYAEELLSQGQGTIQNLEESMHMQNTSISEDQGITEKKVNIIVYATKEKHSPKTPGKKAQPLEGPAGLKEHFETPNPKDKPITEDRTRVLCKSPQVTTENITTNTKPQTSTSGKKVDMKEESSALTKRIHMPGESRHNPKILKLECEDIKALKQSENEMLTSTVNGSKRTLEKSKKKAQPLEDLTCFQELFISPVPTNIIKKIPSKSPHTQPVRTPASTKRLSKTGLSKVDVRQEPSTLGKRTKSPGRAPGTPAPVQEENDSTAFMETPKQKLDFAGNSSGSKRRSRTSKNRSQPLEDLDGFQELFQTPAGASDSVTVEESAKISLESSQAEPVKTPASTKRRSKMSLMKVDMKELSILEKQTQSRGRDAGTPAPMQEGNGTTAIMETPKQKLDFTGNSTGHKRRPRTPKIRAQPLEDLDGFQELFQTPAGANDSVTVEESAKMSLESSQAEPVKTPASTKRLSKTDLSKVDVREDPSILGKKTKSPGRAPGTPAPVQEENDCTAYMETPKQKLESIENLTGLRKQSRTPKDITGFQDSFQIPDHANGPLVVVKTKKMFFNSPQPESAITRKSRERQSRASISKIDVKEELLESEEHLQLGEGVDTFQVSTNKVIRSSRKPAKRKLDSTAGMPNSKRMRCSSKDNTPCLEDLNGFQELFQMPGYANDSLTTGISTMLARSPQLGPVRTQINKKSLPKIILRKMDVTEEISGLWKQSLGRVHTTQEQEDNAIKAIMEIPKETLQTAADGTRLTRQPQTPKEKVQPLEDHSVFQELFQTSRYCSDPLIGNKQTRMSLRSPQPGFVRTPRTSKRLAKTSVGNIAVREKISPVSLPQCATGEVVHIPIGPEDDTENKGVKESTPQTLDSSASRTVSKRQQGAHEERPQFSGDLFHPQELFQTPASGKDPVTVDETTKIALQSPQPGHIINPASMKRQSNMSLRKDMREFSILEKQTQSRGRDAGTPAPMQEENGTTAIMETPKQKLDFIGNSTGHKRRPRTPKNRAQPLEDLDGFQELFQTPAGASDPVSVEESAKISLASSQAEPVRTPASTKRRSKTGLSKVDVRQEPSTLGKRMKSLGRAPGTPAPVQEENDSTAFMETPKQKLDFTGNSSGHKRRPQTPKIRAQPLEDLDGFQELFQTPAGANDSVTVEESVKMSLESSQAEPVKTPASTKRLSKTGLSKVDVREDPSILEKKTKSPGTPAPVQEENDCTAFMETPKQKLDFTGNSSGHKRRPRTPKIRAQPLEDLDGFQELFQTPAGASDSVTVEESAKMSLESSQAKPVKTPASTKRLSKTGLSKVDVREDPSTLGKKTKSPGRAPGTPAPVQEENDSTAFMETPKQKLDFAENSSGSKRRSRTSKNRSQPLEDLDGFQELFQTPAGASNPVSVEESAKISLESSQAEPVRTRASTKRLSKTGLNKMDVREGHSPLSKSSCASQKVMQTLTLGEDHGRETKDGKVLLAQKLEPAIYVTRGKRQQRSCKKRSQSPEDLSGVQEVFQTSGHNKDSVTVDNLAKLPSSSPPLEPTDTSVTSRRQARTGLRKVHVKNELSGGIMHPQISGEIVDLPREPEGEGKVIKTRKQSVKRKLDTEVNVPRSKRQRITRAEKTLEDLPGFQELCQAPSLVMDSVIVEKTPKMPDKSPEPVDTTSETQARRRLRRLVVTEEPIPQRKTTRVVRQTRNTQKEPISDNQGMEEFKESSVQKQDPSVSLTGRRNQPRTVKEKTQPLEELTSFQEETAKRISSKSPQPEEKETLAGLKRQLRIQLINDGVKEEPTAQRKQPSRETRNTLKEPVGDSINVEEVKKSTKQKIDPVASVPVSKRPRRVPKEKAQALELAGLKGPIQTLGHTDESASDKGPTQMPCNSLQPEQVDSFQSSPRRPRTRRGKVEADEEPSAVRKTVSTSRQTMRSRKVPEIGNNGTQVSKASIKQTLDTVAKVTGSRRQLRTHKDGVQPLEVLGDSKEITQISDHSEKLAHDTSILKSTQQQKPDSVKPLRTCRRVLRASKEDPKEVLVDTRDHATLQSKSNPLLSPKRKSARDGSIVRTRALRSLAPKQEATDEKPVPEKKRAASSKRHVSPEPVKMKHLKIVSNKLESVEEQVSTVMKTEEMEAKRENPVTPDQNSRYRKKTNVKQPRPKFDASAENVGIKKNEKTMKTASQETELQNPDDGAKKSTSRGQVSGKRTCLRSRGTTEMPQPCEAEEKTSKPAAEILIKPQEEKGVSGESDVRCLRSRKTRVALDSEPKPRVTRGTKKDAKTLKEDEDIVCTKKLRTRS
UniProt Q9Z148: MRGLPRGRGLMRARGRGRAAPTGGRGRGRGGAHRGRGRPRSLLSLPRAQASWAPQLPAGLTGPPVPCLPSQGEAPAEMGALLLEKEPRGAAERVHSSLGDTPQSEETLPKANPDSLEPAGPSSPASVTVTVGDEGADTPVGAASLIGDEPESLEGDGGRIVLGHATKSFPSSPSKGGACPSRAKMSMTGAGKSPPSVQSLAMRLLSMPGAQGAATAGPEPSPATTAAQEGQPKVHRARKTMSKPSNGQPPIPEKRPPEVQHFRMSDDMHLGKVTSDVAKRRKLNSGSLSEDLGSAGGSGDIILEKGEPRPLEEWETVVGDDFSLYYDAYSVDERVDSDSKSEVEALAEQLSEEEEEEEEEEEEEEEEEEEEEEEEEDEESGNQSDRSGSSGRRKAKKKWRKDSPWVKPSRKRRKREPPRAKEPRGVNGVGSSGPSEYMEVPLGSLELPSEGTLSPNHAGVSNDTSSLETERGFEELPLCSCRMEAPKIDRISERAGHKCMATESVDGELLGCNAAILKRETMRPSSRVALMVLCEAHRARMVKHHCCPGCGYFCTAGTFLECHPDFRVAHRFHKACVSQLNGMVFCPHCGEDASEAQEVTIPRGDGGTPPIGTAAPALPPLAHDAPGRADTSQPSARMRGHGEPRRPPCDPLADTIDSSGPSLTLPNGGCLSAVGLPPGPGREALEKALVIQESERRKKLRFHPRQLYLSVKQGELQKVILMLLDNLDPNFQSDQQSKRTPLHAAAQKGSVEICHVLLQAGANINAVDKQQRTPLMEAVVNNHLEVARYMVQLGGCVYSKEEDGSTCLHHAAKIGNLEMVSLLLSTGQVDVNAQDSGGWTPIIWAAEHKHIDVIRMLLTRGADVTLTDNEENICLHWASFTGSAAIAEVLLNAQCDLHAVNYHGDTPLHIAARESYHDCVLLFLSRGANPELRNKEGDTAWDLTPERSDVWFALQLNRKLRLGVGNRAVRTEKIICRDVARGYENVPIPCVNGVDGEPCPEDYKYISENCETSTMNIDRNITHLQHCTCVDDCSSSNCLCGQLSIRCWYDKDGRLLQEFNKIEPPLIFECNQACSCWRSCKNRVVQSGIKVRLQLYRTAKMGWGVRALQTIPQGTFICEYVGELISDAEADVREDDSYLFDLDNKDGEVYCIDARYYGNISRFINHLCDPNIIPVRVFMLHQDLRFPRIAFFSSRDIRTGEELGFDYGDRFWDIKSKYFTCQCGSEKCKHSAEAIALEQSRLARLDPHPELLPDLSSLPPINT

B1: Fibrillarin, endogenous in mouse ESCs (protein, UniProt P35550 1-327)
chain: MKPGFSPRGGGFGGRGGFGDRGGRGGGRGGRGGFGGGRGGFGGGGRGRGGGGGGFRGRGGGGGRGGGFQSGGNRGRGGGRGGKRGNQSGKNVMVEPHRHEGVFICRGKEDALVTKNLVPGESVYGEKRVSISEGDDKIEYRAWNPFRSKLAAAILGGVDQIHIKPGAKVLYLGAASGTTVSHVSDIVGPDGLVYAVEFSHRSGRDLINLAKKRTNIIPVIEDARHPHKYRMLIAMVDVIFADVAQPDQTRIVALNAHTFLRNGGHFVISIKANCIDSTASAEAVFASEVKKMQQENMKPQEQLTLEPYERDHAVVVGVYRPPPKVKN

Target: nucleophosmin (NPM1), endogenous in mouse ESCs (mouse (endogenous in E14 ESCs)) (UniProt Q61937)
Test: affinity purification with mass spectrometry

binding, binds:
MKI67, endogenous in mouse ESCs (from UniProt E9PVX6 1-3177)
histone lysine methyltransferase G9a (EHMT2), endogenous in mouse ESCs (from UniProt Q9Z148 1-1263) (enzyme)
B1

Results are given in words; binding and its absence hold for the method and conditions named. In cells and extracts the contact can be indirect. These calls come from enrichment with a bait or labelling near it, and not all partners need be listed.
